Laboratory results taken from PubChem BioAssay AID1487 (National Center for Advancing Translational Sciences (NCATS), 2009).
The other results are listed elsewhere or left out. Shown are side measurements of this screen, not its main read-out; they come without a call. Most of these compounds were active or inconclusive in the main read-out, so they are no random draw. Words in brackets tell the shape of the fitted curve; partial curves, single points and poor fits give uncertain potencies.

Assay: qHTS Assay for Modulators of Lamin A Splicing
Settings: HeLa LMNA splicing GFP/RFP minigene ratio, 48 h
In short: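 Read-out is the ratio of GFP to DsRed2 object intensity, acquired by 488 nm laser-scanning cytometry on HeLa lamin A-EGFP minigene reporter cells. Compound incubation 48 hrs at 37 °C in Opti-MEM with 2% FBS; DMSO 0.5% final.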

[1] = measured here: RFP viability control channel
[2] = measured here: GFP splicing reporter channel

Compound | AC50 [1] | AC50 [2]
COc1ccc(C2=NCC(CSc3nnnn3C)S2)cc1 (stereo unspecified) | 35.5 µM [falling, single point] | 
C=CCNC(=O)COC(=O)/C=C/c1cccs1 | 5.62 µM [rising, partial curve, poor fit] | 
COc1ccc(Nc2cc(C)c3ccccc3n2)cc1 | 0.00708 µM [falling, full curve, poor fit] | 0.00501 µM [falling, full curve, poor fit]
COc1cc(Cl)c(NS(=O)(=O)c2ccc(-c3cnc(C4CC4)o3)cc2)c(OC)c1 | 0.501 µM [rising, full curve] | 
O=C(CN1c2cccc3cccc(c23)S1(=O)=O)NCc1ccc2c(c1)OCO2 | 12.6 µM [rising, partial curve] | 
O=C(COc1ccc([N+](=O)[O-])cc1)Nc1ccc(N2CCCC2)cc1 | 0.178 µM [rising, full curve, poor fit] | 3.98 µM [rising, partial curve, poor fit]
COc1cc(OC)c(OC)cc1C#N |  | 1.12 µM [rising, full curve, poor fit]
Nn1c(Cc2cccc3ccccc23)nnc1SCCOc1ccc(Br)cc1 |  | 35.5 µM [falling, single point]
c1ccc(CN2CCN(C3=Nc4cccc5cccc3c45)CC2)cc1 | 14.1 µM [rising, single point] | 12.6 µM [rising, single point]
Cc1cc(N/N=C/c2ccc(Cl)cc2Cl)nc(NCc2ccccc2)n1 | 35.5 µM [falling, single point] | 15.8 µM [falling, single point]
Cc1ccc(/C(N)=N/OC(=O)c2cccc(Cn3cc(C(F)(F)F)ccc3=O)c2)cc1 | 12.6 µM [falling, partial curve, poor fit] | 12.6 µM [falling, partial curve, poor fit]
Cc1ccc(S(=O)(=O)Nc2cccc3cccnc23)cc1 | 17.8 µM [rising, single point] | 
CC(C)(C)NC(=O)[C@H]1CN(Cc2cccnc2)CCN1C[C@@H](O)C[C@@H](Cc1ccccc1)C(=O)N[C@H]1c2ccccc2C[C@H]1O | 14.1 µM [rising, single point] | 28.2 µM [rising, partial curve, poor fit]
COc1ccc(N/N=C(\C#N)C(=N)SCc2ccccc2)cc1 | 11.2 µM [falling, single point] | 2.24 µM [falling, full curve, poor fit]
COc1ccc(Nc2cnn(-c3nc4ccccc4s3)c(=O)c2Cl)cc1 | 15.8 µM [falling, single point] | 35.5 µM [falling, single point]
O=C(Cc1c[nH]c2ccccc12)N/N=C/c1ccc(F)cc1 | 1.12 µM [rising, partial curve] | 
Cc1cc(C)cc(-n2c(C)nc3cc(C(=O)NCc4ccc(F)cc4)ccc32)c1 |  | 22.4 µM [falling, single point]
CN(c1cccc(NC(=O)CN(c2ccc(Cl)c(Cl)c2)S(=O)(=O)c2ccccc2)c1)S(C)(=O)=O | 12.6 µM [rising, partial curve] | 14.1 µM [rising, single point]

Rewritten in markdown: part of the list above.

| Compound | AC50 [1] | AC50 [2] |
| --- | --- | --- |
| O=C(Cc1c[nH]c2ccccc12)N/N=C/c1ccc(F)cc1 | 1.12 µM [rising, partial curve] |  |
| Cc1cc(C)cc(-n2c(C)nc3cc(C(=O)NCc4ccc(F)cc4)ccc32)c1 |  | 22.4 µM [falling, single point] |

(listing goes on)

Compound | AC50 [1] | AC50 [2]
c1ccc(-c2nc3nonc3nc2-c2ccccc2)cc1 | 35.5 µM [rising, single point] | 
O=C(c1ccncc1)N(c1ccc2oc3c(c2c1)CCCC3)S(=O)(=O)c1ccc(F)cc1 | 28.2 µM [rising, single point] | 17.8 µM [rising, single point]
Cc1cc(C)cc(NC(=O)c2cnn(-c3ccc(C)c(C)c3)c2C2CCNCC2)c1 | 31.6 µM [rising, single point] | 
CCOc1ccc(CCNC(=O)c2cn(-c3cccc(OC)c3)c(=O)c3ccccc23)cc1 |  | 2 µM [rising, partial curve]
CCOC(=O)CCCNC(=O)COC(=O)/C=C/c1ccc2c(c1)OCO2 |  | 5.62 µM [rising, partial curve, poor fit]
Cn1nc(C(=O)NCc2ccc(F)cc2)c2ccccc2c1=O |  | 15.8 µM [rising, single point]
Cn1nc(-c2ccc(Cl)cc2)nc2c(=O)n(C)c(=O)nc1-2 | 3.55 µM [falling, full curve] | 2.82 µM [falling, full curve]
O=C(N/N=C/c1ccc([N+](=O)[O-])o1)c1ccc(O)cc1 | 35.5 µM [rising, single point] | 1 µM [falling, partial curve, poor fit]
CCN(C(=O)Cn1c(=O)nc(-c2ccccc2)c2cc(Cl)ccc21)c1cccc(C)c1 |  | 25.1 µM [falling, partial curve]
COc1ccc(N=C2SC(CC(=O)Nc3ccccc3F)C(=O)N2Cc2ccco2)cc1 (stereo unspecified) | 22.4 µM [rising, partial curve] | 22.4 µM [rising, single point]
Cc1cc(C(=O)OC(C)C(=O)Nc2nc(-c3ccccc3)cs2)c(C)o1 (stereo unspecified) | 12.6 µM [rising, partial curve] | 11.2 µM [rising, partial curve]
O=C(O)CSc1c(O)c2ccccc2[nH]c1=O |  | 0.158 µM [rising, single point]
CCCCCOC(=O)NCC(O)c1ccccc1 (stereo unspecified) | 6.31 µM [rising, single point] | 
COc1ccccc1-c1cc(-n2ccnc2)ncn1 | 17.8 µM [falling, single point] | 35.5 µM [falling, single point]
O=C(N/N=C/c1cc(Cl)ccc1O)c1ccc(Br)cc1 | 17.8 µM [rising, partial curve] | 
COc1ccccc1Oc1ccc(N/C=C2/CCCC2=O)cc1 | 0.0141 µM [falling, full curve, poor fit] | 
NS(=O)(=O)c1ccc(NC(=O)COC(=O)c2c3c(nc4ccccc24)/C(=C\c2ccc4c(c2)OCO4)CCC3)cc1 | 35.5 µM [falling, single point] | 5.62 µM [falling, single point]
